## Primary screen of a compound library

Each number is a percent effect as filed.
The controls that fix the scale are not given in the record; negative values are as filed.
The compounds are a random part of those screened.
A dash means the value is not listed here; it may have been measured.

Mtb growth Cornell: 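Whole-cell assay for inhibitors of Mycobacterium tuberculosis growth, labelled Cornell in the record; the read-out is not stated. The concentration is filed as 10 mM, unlikely as a test dose, so the dose is not known. Higher means stronger inhibition (inferred from two other growth screens of the library). Of about 53,000 compounds tested this way, about 900 (1.7%) reached 50% or more in at least one test.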
Mtb heat-shock: 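Assay on Mycobacterium tuberculosis, filed only as a heat shock assay from Cornell; the read-out is not stated. The concentration is filed as 10 mM, unlikely as a test dose, so the dose is not known. The record gives no direction; compounds that gave an IC50 in retests scored well above the rest, so higher reads as stronger inhibition. Of about 69,000 compounds tested this way, about 930 (1.4%) reached 50% or more in at least one test.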

structure,Mtb growth Cornell,Mtb heat-shock
CCOC(=O)N1CCC(NC(C)c2ccccc2-n2cccn2)CC1 (stereo not given),-13.87,4.697
CC[C@@]1(O)CCN(C(=O)c2ccc(-c3cccc(F)c3)cc2)C[C@H]1O,-19.8,14.43
O=C(NC[C@H]1OC[C@@H](NCc2ccccc2F)[C@@H]1O)Nc1ccccc1,1.355,-14.48
CC(C)NC(=O)C1Cc2nc(-c3ccsc3)sc2N1CC1CC1 (stereo not given),12.89,-10.13
Cc1nc(C2CCCN2CC(=O)N2CCc3ccccc32)no1 (stereo not given),-,-18.26
O=C(O)C(F)(F)F.O=C(O)C(F)(F)F.[H][C@@]12COC[C@]1(COCc1ccncc1)CN(c1cc(OC)ncn1)C2,-28.49,-19.34
O=C1CC(c2ccc(Cl)c(Cl)c2)c2c(n3ccsc3nc2=O)N1 (stereo not given),-26.95,-2.254
O=C(O)C(F)(F)F.[H][C@@]12COC[C@@H](C(=O)N3CCCCO3)[C@]1([H])CN(Cc1cc(C)c(C)o1)C2,19.33,-2.02
NC(=O)NC(CC(=O)N1CCc2sccc2C1)c1ccccc1F (stereo not given),-11.7,-1.532
COc1ccnc(NC(=O)c2cscc2C)c1,9.442,-7.415
Cc1ccc(CC(=O)N2CCC(c3nnc4n3CCC4)CC2)cc1,-0.6334,-22.3
[H][C@@]12CN(C(=O)c3cc(=O)[nH]c4ccc(F)cc34)C[C@]1([H])[C@H]2CN(C)C,-74.23,-27.2
[H][C@]12CO[C@@H](CNS(C)(=O)=O)[C@@]1([H])CCN(C(=O)c1cccn1C)C2,4.207,-6.173
NC(=O)CCn1cc(CNCCCc2ccncc2)c2ccccc21,-24.86,-12.94
Cn1c2c(c(=O)n1C)CN(C(=O)c1ccsc1)CCC2,8.681,10.03
Cn1nc(CC(C)(C)C)cc1NC(=O)c1ccc(CNC(N)=O)cc1,13.2,11.49
Cc1[nH]ncc1CCCNC(=O)N1CCN2CCCCC2C1 (stereo not given),-5.852,-35.72
c1ccc(Cc2noc(CN(Cc3cccs3)CC3CCCO3)n2)cc1 (stereo not given),-0.4551,-6.764
Cc1nc(-c2ccccc2)cc2nn(CC(N)=O)c(=O)n12,-68.95,80.99
c1ccc(CCCN2CCN(c3ccc4nncn4n3)CC2)cc1,-,-8.621
O=C(O)C(F)(F)F.[H][C@@]12CCCO[C@]1([H])[C@H](NS(C)(=O)=O)CN(Cc1ccc(OC)cc1)C2,21.76,29.65
Cc1ccc(N2CCCC3(CCN(C(=O)C4CC4)C3)C2)nn1 (stereo not given),-5.085,7.451
Cc1nn(C)c2cnn(Cc3ccc(C(=O)NC4CC4)o3)c12,-33.73,19.29
O=C(NC1CC1)N1CCc2ncnc(-c3ccncc3)c2CC1.O=C(O)C(F)(F)F,-15.67,-12.19
COc1ncccc1NC(=O)N(CC(C)C)C1CC1,-,1.592
Cc1cc(C(=O)N2CCC3(CC2)CN(CCN(C)C)C(=O)O3)nc(C)n1,-12.8,14.38
COc1ccccc1OCC(=O)NS(=O)(=O)c1ccccc1Br,29.83,-1.69
Cc1ccccc1C1(CN)CCCCC1,29.55,-18.08
CN(C)c1ccc(C(=O)Nc2ccn(CC(N)=O)n2)cn1,-,6.23
CC(C)c1nn(C)cc1CNCc1cccc(N(C)C)c1,-23.36,-7.033
CC(O)CN1CCC(CNCCOCC(F)(F)F)CC1 (stereo not given),29.39,0.7772
CC(C)N1c2sc(-c3ccsc3)nc2CC1C(=O)NC1CCCC1 (stereo not given),10.52,-13.95
COc1nc(C)ccc1CNC(=O)NC(c1ncc(C)s1)C1CC1 (stereo not given),14.01,6.9
O=C(COCC1CC1)NCC(c1ccccc1)N1CCc2sccc2C1 (stereo not given),5.058,-9.048
CC(C)OCCCNC(=O)C1CC(=O)N(c2n[nH]c3cccc(F)c23)C1 (stereo not given),2.45,6.228
c1cc2n(n1)CC(CNCc1ccc(OC3CCCCC3)nc1)CN2 (stereo not given),102.7,24.35
CCN1CCC2(CC1)OCCN2C(=O)c1cc(Cl)c(OC)c(Cl)c1.Cl,-18.73,13.79
Cc1nnc(CCNC2CCN(c3ncnc4c(C)csc34)CC2)s1,-22.93,13.15
Cc1nc(CCNC(=O)NCc2ccc(N(C)C)nc2)cs1,9.313,-2.254
Cc1ncccc1C(=O)Nc1cccc(OCC(F)F)n1,20.28,1.237
CC(C)C1CN(c2cnccn2)CCC(=O)N1Cc1ccc(F)cc1 (stereo not given),-15.17,-40.65
O=C(CS(=O)(=O)CC1CCCCC1)NC1CCCCNC1=O (stereo not given),-7.758,-9.659
CCN(CC1CCOC1)C(=O)Nc1ccc(OC)nc1 (stereo not given),-7.811,26.3
Cc1ccc(-c2cc(N)c(=O)n(C(C)C(N)=O)n2)o1 (stereo not given),47.81,4.081
CC(C)n1cc(S(=O)(=O)N2CCSCC2)cn1,-,-28.39
c1coc(-c2noc(CN3CC(n4cccn4)C3)n2)c1,-,8.452
[H][C@@]12CS(=O)(=O)C[C@]1([H])N(C(=O)c1cc(-c3cccn3C)n[nH]1)CCN2CC,18.58,18
Cc1ncsc1CCCn1ccnc1-c1cc2n(n1)CCCNC2,-2.569,-12.55
Cc1cc2[nH]c(=O)c(=O)[nH]c2cc1S(=O)(=O)NC1CCCCC1,-,-32.86
N#CCSCCCN1CCC(C(=O)N2CCCCCC2)CC1,-,14.15
O=C(NCC1(O)CCOCC1)c1ccn(-c2ccccc2F)n1,28.31,-0.8008
Cc1cc(C)c2cc(CNCCCN3CCOCC3)c(=O)[nH]c2c1,6.469,-7.913
CC(C)COCC(NC(=O)c1cccnc1)c1ccco1 (stereo not given),17.51,6.643
CN(C)C(=O)CN1CCC2(C1)CN(CC1CCOCC1)C2,23.39,-3.648
Cc1cnn(CC2CCCCN2CC(=O)Nc2nc(C)cs2)c1 (stereo not given),-13.18,74.94
COc1ccc(CNCC(C)Oc2ccccn2)cc1Cl.Cl (stereo not given),10.19,-5.476
O=C1CCc2cc(-c3csc(CCN4CCOC4=O)n3)c(F)cc2N1,-,-16.68
CCc1nc(CNc2ccc(-c3nc(C4CC4)no3)cn2)no1,27.51,-0.7389
CNC(=O)CC1CC2(CCN(c3ncccn3)CC2)c2ccccc21.O=C(O)C(F)(F)F (stereo not given),21.73,-10.82
N#Cc1c(F)cccc1NCCCOCC1CCOC1 (stereo not given),-,-25.71
CN(CC(=O)NCC(F)(F)F)C(=O)c1ccc(=O)[nH]c1,14.36,4.697
O=C(Cn1cnc2cc3c(cc21)OCCCO3)NC1CCCCC1,15.25,6.94
Cc1cc(C)cc(OCCN2CCn3c(C)nnc3C2)c1,12.04,-4.132
Cc1cccc(C)c1OCCCN1CCC(n2cncn2)CC1,13.21,-13.77
NC(=O)Cn1cc(NC(=O)NCCN2CCc3ccccc3C2)cn1,-,-10.34
COc1ccc(C)cc1NC(=O)Cn1nc(C)c(C#N)c1N,-11.59,0.3699
Cc1nc(C)n(CC2CCCN2Cc2nc3ccccc3nc2C)n1 (stereo not given),-,-3.804
Cc1ccc(C(=O)N2Cc3ccccc3OC3(CCOCC3)C2)cn1,-49.53,-6.434
CCCn1nc(C)c(C(=O)N(C)[C@@H]2CC[C@@H](OC)[C@@H]2O)c1C,3.259,-0.4414
CC(=O)N1CCC2(CCN(Cc3cccc(F)c3)CC2)CC1.O=C(O)C(F)(F)F,9.745,-29.36

7 of the entries, repeated:

structure,Mtb growth Cornell,Mtb heat-shock
c1ccc(Cc2noc(CN(Cc3cccs3)CC3CCCO3)n2)cc1 (stereo not given),-0.4551,-6.764
[H][C@@]12CS(=O)(=O)C[C@]1([H])N(C(=O)c1cc(-c3cccn3C)n[nH]1)CCN2CC,18.58,18
Cc1cccc(C)c1OCCCN1CCC(n2cncn2)CC1,13.21,-13.77
N#Cc1c(F)cccc1NCCCOCC1CCOC1 (stereo not given),-,-25.71
CN(C)c1ccc(C(=O)Nc2ccn(CC(N)=O)n2)cn1,-,6.23
COc1nc(C)ccc1CNC(=O)NC(c1ncc(C)s1)C1CC1 (stereo not given),14.01,6.9
[H][C@@]12CN(C(=O)c3cc(=O)[nH]c4ccc(F)cc34)C[C@]1([H])[C@H]2CN(C)C,-74.23,-27.2

From ChEMBL document CHEMBL3988442, “University of Dundee, Small-Polar-MMV Screening Library” (2021).